These are yes or no findings as the source states them, for the method shown. For some of these results: Binding calls can cover weak binding; strength is not graded here.

Binding data for five molecules are collected here from paper PMC4802042.

Experiment [1] concerns the target JNK1 (unphosphorylated, full-length human JNK1) (human). The experiment in a line: crystal structure; unphosphorylated JNK1 and MKP7-CD mixed 1:1; 2.4 Å; four complexes in the asymmetric unit; both purified.
For experiment [2], the target named is GST-JNK1 (wild type) (human). The experiment in a line: pull-down; GST-JNK1 (0.5 ml, 6 uM) on GS4B resin, MKP domain (0.5 ml, 20 uM) flowed through, 4 °C, 25 mM Tris-HCl pH 8.0, 150 mM NaCl, 2 mM dithiothreitol; eluted with 10 mM reduced glutathione; SDS-PAGE, Coomassie; both purified.
The target of experiment [3] is JNK1 (unphosphorylated, full-length human JNK1) (human). The experiment in a line: SEC; Superdex-200 10/300, 10 mM HEPES pH 7.5, 150 mM NaCl, 2 mM dithiothreitol; 3 molar equivalents of the MKP domain mixed with 1 of JNK1; column calibrated with mass standards; fractions on SDS-PAGE, Coomassie; both purified. Background: SEC sorts molecules by how far they enter the pores of the column.

For experiment [4] the target is unchanged. The experiment in a line: condition: 3 molar equivalents of MKP7-CD (F285D) to 1 of JNK1; SEC; Superdex-200 10/300, 10 mM HEPES pH 7.5, 150 mM NaCl, 2 mM dithiothreitol; 3 molar equivalents of the MKP domain mixed with 1 of JNK1; column calibrated with mass standards; fractions on SDS-PAGE, Coomassie; both purified.

B1: MKP7 catalytic domain (MKP7-CD, residues 156-301) (domain or fragment, UniProt Q9BY84 156-301)
chain: NIGPTRILPNLYLGCQRDVLNKELMQQNGIGYVLNASNTCPKPDFIPESHFLRVPVNDSFCEKILPWLDKSVDFIEKAKASNGCVLVHCLAGISRSATIAIAYIMKRMDMSLDEAYRFVKEKRPTISPNFNFLGQLLDYEKKIKNQ
For B1, the binding result in experiment [1], in experiment [2] and in experiment [3] was “binds” throughout.

B2: MKP7-CD (F285D) (domain or fragment, UniProt Q9BY84 156-301)
chain: NIGPTRILPNLYLGCQRDVLNKELMQQNGIGYVLNASNTCPKPDFIPESHFLRVPVNDSFCEKILPWLDKSVDFIEKAKASNGCVLVHCLAGISRSATIAIAYIMKRMDMSLDEAYRFVKEKRPTISPNDNFLGQLLDYEKKIKNQ
As to B2, in experiment [4], the binding result is “no binding”.

B3: MKP5 catalytic domain (MKP5-CD, residues 320-467) (domain or fragment, UniProt Q9Y6W6 320-467)
chain: AELTPILPFLFLGNEQDAQDLDTMQRLNIGYVINVTTHLPLYHYEKGLFNYKRLPATDSNKQNLRQYFEEAFEFIEEAHQCGKGLLIHCQAGVSRSATIVIAYLMKHTRMTMTDAYKFVKGKRPIISPNLNFMGQLLEFEEDLNNGVT
With B3, the binding result in experiment [2] and in experiment [3] was “binds” throughout.

B4: MKP5 kinase-binding domain (MKP5-KBD, residues 139-287) (domain or fragment, UniProt Q9Y6W6 139-287)
chain: GTPKQLASIKIIYPNDLAKKMTKCSKSHLPSQGPVIIDCRPFMEYNKSHIQGAVHINCADKISRRRLQQGKITVLDLISCREGKDSFKRIFSKEIIVYDENTNEPSRVMPSQPLHIVLESLKREGKEPLVLKGGLSSFKQNHENLCDNS
Regarding B4, the binding result in experiment [2] and in experiment [3] was “no binding” each time.

B5: MKP7 kinase-binding domain (MKP7-KBD, residues 5-138) (domain or fragment, UniProt Q9BY84 5-138)
chain: MIGTQIVTERLVALLESGTEKVLLIDSRPFVEYNTSHILEAININCSKLMKRRLQQDKVLITELIQHSAKHKVDIDCSQKVVVYDQSSQDVASLSSDCFLTVLLGKLEKSFNSVHLLAGGFAEFSRCFPGLCEG
Consider B5, for which the binding entry in experiment [2] was “no binding”; in experiment [3], “no binding (tested: 3 molar equivalents of KBD to 1 of JNK1)”.
